Out of some 300,000 compounds screened, about 3,700 (1.2%) were called active. Inconclusive results, whose numbers are uncertain, are shown with a selection of clear calls. Calls follow the shape of the full dose curve; tested in HEK293 cells. A potency beside an inconclusive call is a rough fit, not a confirmed value.
Assay: qHTS for Inhibitors of binding or entry into cells for Lassa Virus; also: nearly all actives have a fitted effect of over 50% in size
Conditions: Lassa virus pseudotype entry inhibition, cell reporter; series mostly up to 37.9 µM
For `Cc1ccc(-c2csc(NC(=O)CSC3=NCCS3)n2)cc1`, the Potency was “inactive”. For `O=C(NC(=S)NCCc1ccccc1)c1ccccc1F`, the Potency was “inactive”. In the case of `CNC(=O)C1CCC(Cn2c(=O)c3sccc3n(Cc3ccccc3)c2=O)CC1` (stereo not drawn), the Potency is reported as “inactive”. In the case of `CC(=O)/C=C1\C(=O)N(C)c2ccccc21`, the Potency is reported as inconclusive: 23.1 µM [inhibitor, partial curve, poor fit]. In the case of `COc1ccc(NC(=O)NCc2cccn2C)c(OC)c1`, the Potency is reported as inconclusive: 25.1 µM [activator, single point]. In the case of `Cn1ncc([N+](=O)[O-])c1C(=O)Nc1ccn(Cc2ccccc2F)n1`, the Potency is reported as “inactive”. For `C(=NN=C(NN=Cc1cccs1)NN=Cc1cccs1)c1cccs1`, the Potency was inconclusive: 22.4 µM [inhibitor, single point]. In the case of `O=C1OC(c2ccccc2)=C/C1=C\N1CCOCC1`, the Potency is reported as inconclusive: 11.6 µM [activator, partial curve]. In the case of `CCCNCc1nnc(-c2ccccc2Cl)o1`, the Potency is reported as inconclusive: 25.1 µM [inhibitor, single point]. In the case of `Cn1c(=O)c2ncn(CC(=O)Nc3cc(C(F)(F)F)ccc3N3CCOCC3)c2n(C)c1=O`, the Potency is reported as “inactive”. With `COc1cccc(COC(=O)c2nn(-c3ccccc3)nc2N)c1` the Potency was inconclusive: 12.6 µM [inhibitor, single point]. For `CCc1ccc(S(=O)(=O)/N=C2\C=C(Nc3ccc(O)cc3)C(=O)c3ccccc32)cc1`, the Potency was active: 4.47 µM. With `Cc1ccc(C(=O)N/N=C\c2ccc([N+](=O)[O-])o2)cn1` the Potency was inconclusive: 11.2 µM [inhibitor, partial curve, poor fit]. With `COc1ccccc1NC(=O)C(=O)NCCC1CCCCN1S(=O)(=O)c1ccccc1` (stereo not drawn) the Potency was inconclusive: 11.2 µM [inhibitor, partial curve]. In the case of `COc1cccc(OCc2nc3ccccc3n2Cc2ccccc2)c1`, the Potency is reported as inconclusive: 28.2 µM [activator, partial curve, poor fit]. With `CC1CC(C)CN(C(=O)c2ccc3c(c2NCCO)C(=O)c2ccccc2C3=O)C1` (stereo not drawn) the Potency was inconclusive: 12.6 µM [inhibitor, partial curve, poor fit]. In the case of `COc1ccc(Nc2cc(C(=O)NCCCN(C)Cc3ccccc3)c3ccccc3n2)cc1OC`, the Potency is reported as “inactive”. With `O=C(Nc1ccccc1NS(=O)(=O)c1ccc(F)cc1)C1CCCC1` the Potency was inconclusive: 0.282 µM [inhibitor, partial curve, poor fit]. For `CCCCOc1ccc(C(=O)NCC2(c3ccccc3)CCOCC2)cc1`, the Potency was inconclusive: 29.1 µM [inhibitor, single point]. With `CCC(C)Sc1cc(C)c(C#N)c2nc3ccccc3n12` (stereo not drawn) the Potency was inconclusive: 35.5 µM [inhibitor, single point]. For `O=C(COC(=O)c1cc([N+](=O)[O-])ccc1N1CCOCC1)c1ccc(Br)cc1`, the Potency was inconclusive: 0.398 µM [inhibitor, partial curve, poor fit]. For `CCC1=Nc2cc(C(=O)NCCc3ccccc3)ccc2Sc2ccc(Cl)cc21`, the Potency was inconclusive: 2.24 µM [inhibitor, full curve, poor fit]. In the case of `CC(NC(=O)c1cc2cc([N+](=O)[O-])ccc2oc1=O)C1CCCO1` (stereo not drawn), the Potency is reported as “inactive”. For `Cc1nn(Cc2ccccc2)c2sc(C(=O)NCc3cccnc3)cc12`, the Potency was inconclusive: 18.3 µM [inhibitor, single point]. With `CC1(C)Cc2nc3sc4c(SCC(=O)NC(c5ccccc5)c5ccccc5)ncnc4c3cc2CO1` the Potency was inconclusive: 11.2 µM [inhibitor, partial curve, poor fit]. For `CN=c1sc2ccccc2n1CC(O)c1ccccc1` (stereo not drawn), the Potency was inconclusive: 35.5 µM [inhibitor, single point]. For `Cc1cc(C)c2c(n1)nn1c(C)c(CCC(=O)Nc3ccc(C)c(Cl)c3)c(C)nc21`, the Potency was “inactive”. For `Fc1ccccc1Nc1nc2ccccc2o1`, the Potency was inconclusive: 7.94 µM [inhibitor, partial curve, poor fit]. In the case of `O=C(Nc1nc(-c2ccc(Cl)cc2Cl)cs1)C1CCCO1` (stereo not drawn), the Potency is reported as inconclusive: 20.6 µM [inhibitor, partial curve]. In the case of `Cc1cc(C)c2c(=O)n(CC(=O)Nc3ccc(Cl)cc3)sc2n1`, the Potency is reported as inconclusive: 15.8 µM [inhibitor, partial curve, poor fit]. For `COc1cc(CN2CCC(C(N)=O)CC2)ccc1OCc1ccccc1`, the Potency was inconclusive: 7.94 µM [activator, partial curve, poor fit]. In the case of `CCSC1=NC2(CCN(C(=O)NC3CCCCC3)CC2)N=C1c1ccc(C)cc1`, the Potency is reported as inconclusive: 6.31 µM [activator, partial curve, poor fit]. With `CCOC(=O)c1ccc(NC(=S)Nc2cccc(C)n2)cc1` the Potency was inconclusive: 3.55 µM [inhibitor, partial curve, poor fit]. In the case of `COc1cccc(/C=N/n2cnc3cc(C)c(C)cc32)c1OC`, the Potency is reported as “inactive”. With `Cc1ccc(N(CCC#N)C(=O)CN2C(=O)NC(Cc3ccccc3)C2=O)cc1` (stereo not drawn) the Potency was inconclusive: 39.8 µM [inhibitor, partial curve, poor fit]. For `Cc1ccc(C)c(N2CCN(c3nnnn3-c3ccccc3)CC2)c1`, the Potency was inconclusive: 17.8 µM [inhibitor, single point]. In the case of `Cc1cc(/C=C(\C#N)C(=O)NCc2cccs2)c(C)n1-c1ccccc1F`, the Potency is reported as inconclusive: 5.01 µM [inhibitor, partial curve, poor fit]. For `Cc1cccc(C(=O)NC2CCN(CC(=O)Nc3ccccc3Cl)CC2)c1`, the Potency was inconclusive: 35.5 µM [inhibitor, single point]. In the case of `CCC(C)c1ccccc1N1CC(C(=O)N2CCN(S(=O)(=O)c3cccc([N+](=O)[O-])c3)CC2)CC1=O` (stereo not drawn), the Potency is reported as “inactive”. With `CCOc1ccc(-n2cc(-c3ccccc3)c3c(=O)[nH]cnc32)cc1` the Potency was inconclusive: 16.4 µM [inhibitor, partial curve, poor fit]. For `O=Cc1ccc(-c2ccc(F)cc2)o1`, the Potency was “inactive”. For `Cc1ccccc1-c1nnc(Cc2ccccc2)o1`, the Potency was inconclusive: 3.55 µM [activator, single point]. For `O=S(=O)(c1ccc(OCC(O)CN2CCN(c3ccccc3O)CC2)cc1)N1CCOCC1` (stereo not drawn), the Potency was inconclusive: 13 µM [inhibitor, partial curve, poor fit].

From PubChem BioAssay AID540256 (National Center for Advancing Translational Sciences (NCATS), 2011)
Potency is read from the fitted curve at half-maximal effect.
